Laboratory results taken from paper PMC9932167.
No constants are given. Whether binding was seen depends on the method and setting. For part of these data: Binding seen in cells or lysates may run through a third protein. Some results given as binding are weak or reduced against the parent protein; the word gives no strength. Values belong to the substance of their own block, whether it stands above or below them.

By UniProt entry, the sequences of proteins in these tests, tags left out. Where a name states a change or a piece, a line headed by the entry shows the natural chain unless it says otherwise. Chains listed by the source or under a name are the forms on record and can include a tag or linker.
UniProt Q1HFZ0: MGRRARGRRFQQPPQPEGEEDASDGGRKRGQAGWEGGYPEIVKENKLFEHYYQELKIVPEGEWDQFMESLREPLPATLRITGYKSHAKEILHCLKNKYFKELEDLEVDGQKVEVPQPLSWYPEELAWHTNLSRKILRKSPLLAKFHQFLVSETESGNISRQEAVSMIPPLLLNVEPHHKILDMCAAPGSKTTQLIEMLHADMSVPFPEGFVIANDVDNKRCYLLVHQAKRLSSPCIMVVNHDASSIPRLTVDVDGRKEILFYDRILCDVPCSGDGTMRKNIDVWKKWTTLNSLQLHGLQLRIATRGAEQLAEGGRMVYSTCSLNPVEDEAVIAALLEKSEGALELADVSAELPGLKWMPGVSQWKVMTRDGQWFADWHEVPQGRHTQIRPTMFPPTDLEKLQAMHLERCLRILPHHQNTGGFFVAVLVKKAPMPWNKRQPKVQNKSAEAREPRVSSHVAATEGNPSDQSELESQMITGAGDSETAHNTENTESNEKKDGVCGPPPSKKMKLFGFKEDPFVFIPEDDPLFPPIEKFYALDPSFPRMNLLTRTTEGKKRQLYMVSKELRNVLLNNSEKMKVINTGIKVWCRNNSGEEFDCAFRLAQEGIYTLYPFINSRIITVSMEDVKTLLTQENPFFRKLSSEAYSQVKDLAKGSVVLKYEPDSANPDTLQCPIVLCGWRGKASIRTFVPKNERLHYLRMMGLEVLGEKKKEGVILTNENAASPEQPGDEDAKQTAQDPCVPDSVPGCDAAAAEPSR
GST-RoRγt protein (P51450-2, form named): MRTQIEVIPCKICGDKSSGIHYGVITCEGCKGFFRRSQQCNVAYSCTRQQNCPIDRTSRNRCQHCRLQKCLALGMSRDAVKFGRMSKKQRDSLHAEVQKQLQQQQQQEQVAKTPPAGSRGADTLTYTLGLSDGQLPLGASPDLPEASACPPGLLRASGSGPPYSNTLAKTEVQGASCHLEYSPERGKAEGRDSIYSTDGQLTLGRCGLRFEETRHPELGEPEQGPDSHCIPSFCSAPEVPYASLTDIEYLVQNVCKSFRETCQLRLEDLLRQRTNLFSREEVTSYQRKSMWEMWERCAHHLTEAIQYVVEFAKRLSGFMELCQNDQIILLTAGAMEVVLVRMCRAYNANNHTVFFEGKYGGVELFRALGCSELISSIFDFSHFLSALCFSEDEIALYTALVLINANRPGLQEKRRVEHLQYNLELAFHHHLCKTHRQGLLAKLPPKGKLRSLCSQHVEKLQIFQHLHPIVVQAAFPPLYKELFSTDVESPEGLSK

Assays:
[1] = target: Flag-Nsun2 (pCDNA3.1-Flag-Nsun2, wild-type mouse Nsun2) (mouse) (UniProt Q1HFZ0); assay: co-IP; HEK293T co-transfected with Myc-RoRγt and Flag-Nsun2 or Flag-EV for 2 days; RIPA lysates treated with DNase I and RNase A; anti-Flag beads or anti-Myc beads, 3 h; western blot
[2] = target: Nsun2 (RNA 5-methylcytosine methyltransferase), endogenous in mouse Th17 cells (mouse (endogenous in Th17 cells)) (UniProt Q1HFZ0); assay: proximity ligation; PLA for Nsun2 and RoRγt in induced Th17 cells; signal in the nucleus (DAPI)
[3] = target: GST-RoRγt protein (mouse) (UniProt P51450); assay: pull-down; 5 μg purified Flag-Nsun2 mixed with GST or GST-RoRγt protein and glutathione Sepharose beads in NETN buffer (100 mM NaCl, 1 mM EDTA, 20 mM Tris-HCl pH 7.4, 0.5% NP-40), 4 °C, 4 h; western blot; both purified

binding [1]: binds
Substance: Myc-RoRγt (pCMV-Myc-RoRγt, wild-type mouse RoRγt) (from UniProt P51450-2 1-495)

binding [2]: binds
Substance: Retinoic acid receptor-related orphan receptor gamma t (RoRγt), endogenous in mouse Th17 cells (from UniProt P51450-2 1-495)

binding [3]: binds
Substance: purified Flag-Nsun2 (mouse) protein (from UniProt Q1HFZ0 1-757) (enzyme)
